Article PMC6547440, “The HRP3 PWWP domain recognizes the minor groove of double-stranded DNA and recruits HRP3 to chromatin” (Nucleic Acids Research, 2019)
For at least one entry, the source does not settle the construct or the ends of the probe. For part of these data: A weaker result is weaker than the reference pair of the same experiment. At least one verdict was read from the data and is not stated in words by the source.

By UniProt entry, the sequences of proteins in these tests, tags left out. Residues count along the entry.
UniProt Q9Y3E1, 1-110: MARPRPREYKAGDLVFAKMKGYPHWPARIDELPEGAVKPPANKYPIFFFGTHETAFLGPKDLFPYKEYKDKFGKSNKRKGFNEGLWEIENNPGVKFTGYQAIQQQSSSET
UniProt Q9Y3E1, 1-110 K18A: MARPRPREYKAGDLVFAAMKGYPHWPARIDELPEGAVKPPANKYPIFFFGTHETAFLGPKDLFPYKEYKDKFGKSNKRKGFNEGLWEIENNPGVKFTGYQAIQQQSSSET
UniProt Q9Y3E1, 1-110 N76A: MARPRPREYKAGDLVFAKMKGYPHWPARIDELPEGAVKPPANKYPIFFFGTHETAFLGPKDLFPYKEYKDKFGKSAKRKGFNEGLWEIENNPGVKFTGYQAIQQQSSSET
UniProt Q9Y3E1, 1-110 R78A: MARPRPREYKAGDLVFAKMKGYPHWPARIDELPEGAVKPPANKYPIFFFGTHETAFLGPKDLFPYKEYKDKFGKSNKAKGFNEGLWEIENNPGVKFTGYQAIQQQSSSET
UniProt Q9Y3E1, 1-110 K77A: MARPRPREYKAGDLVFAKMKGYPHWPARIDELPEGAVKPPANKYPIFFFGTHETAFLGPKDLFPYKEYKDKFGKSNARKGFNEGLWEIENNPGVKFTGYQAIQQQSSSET

Key:
HRP3 PWWP (1-110) WT = HRP3 PWWP (1-110) WT (UniProt Q9Y3E1); assay: ITC; details: value in figure only, ITC: 10 mM PBS pH 7.0, 50 mM NaCl, 2 mM b-ME, 20 C, recombinant protein, residues 1-110, label: 5'-FAM (MST)
HRP3 PWWP K18A = HRP3 PWWP K18A (UniProt Q9Y3E1); assay: MST; details: MST: 50 mM KCl, 10 mM Na cacodylate pH 6.5, 2 mM DTT, 200 nM FAM-dsDNA, recombinant protein, residues 1-110, label: 5'-FAM (MST)
HRP3 PWWP N76A = HRP3 PWWP N76A (UniProt Q9Y3E1); assay: MST; details: affinity unchanged vs WT; MST: 50 mM KCl, 10 mM Na cacodylate pH 6.5, 2 mM DTT, 200 nM FAM-dsDNA; recombinant protein; residues 1-110; label: 5'-FAM (MST)
[1] = target: HRP3 PWWP R78 mutant R78A (UniProt Q9Y3E1); assay: MST; details: MST: 50 mM KCl, 10 mM Na cacodylate pH 6.5, 2 mM DTT, 200 nM FAM-dsDNA, recombinant protein, residues 1-110, label: 5'-FAM (MST)
[2] = target: HRP3 PWWP K77 mutant K77A (UniProt Q9Y3E1); assay: MST; details: MST: 50 mM KCl, 10 mM Na cacodylate pH 6.5, 2 mM DTT, 200 nM FAM-dsDNA, recombinant protein, residues 1-110, label: 5'-FAM (MST)

Sequence | binding result (HRP3 PWWP (1-110) WT; weaker than 16-mer-TA) | binding result (HRP3 PWWP K18A; affinity unchanged vs WT) | binding result (HRP3 PWWP N76A) | binding result ([1]; affinity unchanged vs WT) | binding result ([2]; affinity unchanged vs WT) | binding result (HRP3 PWWP (1-110) WT; TA preferred) | binding result (HRP3 PWWP K18A) | binding result [1] | binding result [2]
GCGCGCGCGCGCGCGC (double strand) [16-mer-GC] | binds more weakly | binds | binds | binds | binds | – | – | – | –
TATATATATATATATA (double strand) [16-mer-TA] | – | – | – | – | – | binds | binds more weakly | binds more weakly | binds more weakly
